Reference: article PMC10950863
Results are given in words; binding and its absence hold for the method and conditions named.

Sequences of proteins named here, by UniProt entry; tags and fusion partners are left off. Residues count along the entry.
N-terminal domain of human DNMT1 (residues 16–134), DNMT1^NL (P26358, residues 16-134): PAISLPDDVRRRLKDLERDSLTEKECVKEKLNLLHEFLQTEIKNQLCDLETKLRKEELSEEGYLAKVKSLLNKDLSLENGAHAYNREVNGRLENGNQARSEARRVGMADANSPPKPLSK
N-terminal domain of human DNMT1 (residues 16–93), DNMT1^N (P26358, residues 16-93): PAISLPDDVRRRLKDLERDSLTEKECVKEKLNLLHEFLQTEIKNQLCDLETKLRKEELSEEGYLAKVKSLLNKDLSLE

Columns and labels:
[1] = target: N-terminal domain of human DNMT1 (residues 16–93), DNMT1^N (human) (UniProt P26358); test: NMR 15N relaxation (rotational correlation time from R1 and R2); 15N-labelled protein in solution, 25 °C, 20 mM MES/Bis-Tris, 50 mM NaCl, pH 6.0; oligomeric state from τc; both purified
[2] = target: N-terminal domain of human DNMT1 (residues 16–93), DNMT1^N (human) (UniProt P26358); test: SAXS; DNMT1^N in solution at 1, 2 and 3 mg/ml, no concentration dependence; Rg, Dmax and fit to the NMR structure; both purified
[3] = target: N-terminal domain of human DNMT1 (residues 16–134), DNMT1^NL (human) (UniProt P26358); test: NMR 15N relaxation (rotational correlation time from R1 and R2); 15N-labelled protein in solution, 25 °C, 20 mM MES/Bis-Tris, 50 mM NaCl, pH 6.0; oligomeric state from τc; both purified

binding [1] | binding [2] | binding [3] | Substance
no binding | no binding (tested: 1, 2, and 3 mg/ml) | – | N-terminal domain of human DNMT1 (residues 16–93), DNMT1^N (from UniProt P26358 16-93) (domain or fragment)
– | – | no binding | N-terminal domain of human DNMT1 (residues 16–134), DNMT1^NL (from UniProt P26358 16-134) (domain or fragment)
